Experimental data reported in publication PMC9578791.
No constants are given. Whether binding was seen depends on the method and setting. In cells and extracts the contact can be indirect. A yes stands for co-enrichment or nearness to the bait. Other partners may have been found.

Amino acid sequences for entries named in this document (tags omitted).
UniProt P21333: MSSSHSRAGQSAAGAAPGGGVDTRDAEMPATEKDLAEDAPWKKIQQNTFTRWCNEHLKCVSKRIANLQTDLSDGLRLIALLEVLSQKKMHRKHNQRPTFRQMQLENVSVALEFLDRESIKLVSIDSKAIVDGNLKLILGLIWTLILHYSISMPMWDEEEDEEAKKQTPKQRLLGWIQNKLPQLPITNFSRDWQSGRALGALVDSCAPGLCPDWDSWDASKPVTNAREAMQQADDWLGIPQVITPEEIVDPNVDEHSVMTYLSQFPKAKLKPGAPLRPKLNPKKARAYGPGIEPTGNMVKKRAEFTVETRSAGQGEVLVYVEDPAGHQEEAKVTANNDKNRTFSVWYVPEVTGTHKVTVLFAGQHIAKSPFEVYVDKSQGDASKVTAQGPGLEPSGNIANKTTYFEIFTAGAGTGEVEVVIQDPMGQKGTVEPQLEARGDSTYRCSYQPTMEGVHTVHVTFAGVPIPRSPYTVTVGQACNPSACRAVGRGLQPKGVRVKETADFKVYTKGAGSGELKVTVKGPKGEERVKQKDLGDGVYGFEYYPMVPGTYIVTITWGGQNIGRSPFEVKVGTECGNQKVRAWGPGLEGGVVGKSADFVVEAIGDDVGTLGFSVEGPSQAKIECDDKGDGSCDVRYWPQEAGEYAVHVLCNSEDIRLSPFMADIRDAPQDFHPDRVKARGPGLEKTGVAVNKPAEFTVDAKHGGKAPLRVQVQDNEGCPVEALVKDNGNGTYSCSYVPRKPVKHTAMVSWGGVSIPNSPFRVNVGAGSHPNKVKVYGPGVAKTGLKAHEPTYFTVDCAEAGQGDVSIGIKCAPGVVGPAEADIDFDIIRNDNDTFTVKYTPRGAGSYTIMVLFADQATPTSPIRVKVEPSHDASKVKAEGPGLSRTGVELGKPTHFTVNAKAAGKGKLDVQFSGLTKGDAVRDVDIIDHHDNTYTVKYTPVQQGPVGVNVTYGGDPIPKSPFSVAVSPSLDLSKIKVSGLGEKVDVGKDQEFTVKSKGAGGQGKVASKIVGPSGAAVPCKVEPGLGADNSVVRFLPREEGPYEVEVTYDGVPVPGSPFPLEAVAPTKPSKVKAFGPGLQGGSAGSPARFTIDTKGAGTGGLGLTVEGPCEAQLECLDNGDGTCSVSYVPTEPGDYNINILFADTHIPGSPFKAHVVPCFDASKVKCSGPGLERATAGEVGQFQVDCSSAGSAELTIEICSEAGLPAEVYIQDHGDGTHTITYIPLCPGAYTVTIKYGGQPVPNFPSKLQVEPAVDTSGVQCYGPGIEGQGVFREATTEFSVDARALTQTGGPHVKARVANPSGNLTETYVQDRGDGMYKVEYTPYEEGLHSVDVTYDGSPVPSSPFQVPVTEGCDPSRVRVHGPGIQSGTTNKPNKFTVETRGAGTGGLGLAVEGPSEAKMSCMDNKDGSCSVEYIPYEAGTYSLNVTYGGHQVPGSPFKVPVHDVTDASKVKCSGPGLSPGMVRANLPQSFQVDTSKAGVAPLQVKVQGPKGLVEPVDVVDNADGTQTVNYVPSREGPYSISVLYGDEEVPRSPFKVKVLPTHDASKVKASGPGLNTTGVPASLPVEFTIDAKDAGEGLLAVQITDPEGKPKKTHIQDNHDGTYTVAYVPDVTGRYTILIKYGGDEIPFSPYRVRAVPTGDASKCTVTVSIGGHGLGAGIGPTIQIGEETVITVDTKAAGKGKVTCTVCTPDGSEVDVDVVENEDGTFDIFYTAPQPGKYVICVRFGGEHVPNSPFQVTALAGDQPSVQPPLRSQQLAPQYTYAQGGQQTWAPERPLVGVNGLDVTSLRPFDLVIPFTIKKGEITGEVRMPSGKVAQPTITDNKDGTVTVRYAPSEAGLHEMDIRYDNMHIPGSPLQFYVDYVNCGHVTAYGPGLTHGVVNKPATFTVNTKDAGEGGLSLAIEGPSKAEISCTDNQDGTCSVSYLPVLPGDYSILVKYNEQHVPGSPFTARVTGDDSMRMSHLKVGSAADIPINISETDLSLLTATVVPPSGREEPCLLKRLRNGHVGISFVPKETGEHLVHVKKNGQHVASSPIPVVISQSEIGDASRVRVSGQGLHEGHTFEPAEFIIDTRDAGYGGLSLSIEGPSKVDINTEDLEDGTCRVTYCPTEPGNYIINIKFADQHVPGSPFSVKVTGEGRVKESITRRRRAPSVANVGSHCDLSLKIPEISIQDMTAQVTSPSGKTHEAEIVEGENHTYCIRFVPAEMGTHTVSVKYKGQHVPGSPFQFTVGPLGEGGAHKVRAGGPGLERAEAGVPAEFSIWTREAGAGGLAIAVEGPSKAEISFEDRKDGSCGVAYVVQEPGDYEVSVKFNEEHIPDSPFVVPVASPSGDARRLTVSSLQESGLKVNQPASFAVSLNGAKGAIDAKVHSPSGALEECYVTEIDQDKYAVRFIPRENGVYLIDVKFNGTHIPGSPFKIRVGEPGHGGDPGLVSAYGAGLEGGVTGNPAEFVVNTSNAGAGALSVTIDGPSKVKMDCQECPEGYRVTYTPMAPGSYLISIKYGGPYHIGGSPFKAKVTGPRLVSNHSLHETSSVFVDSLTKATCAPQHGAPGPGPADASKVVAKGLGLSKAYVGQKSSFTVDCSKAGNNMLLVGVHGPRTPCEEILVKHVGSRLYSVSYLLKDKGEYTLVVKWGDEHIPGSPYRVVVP

T1: thyroid hormone receptor interactor 13 (TRIP13) (UniProt Q15645)
T1 sequence: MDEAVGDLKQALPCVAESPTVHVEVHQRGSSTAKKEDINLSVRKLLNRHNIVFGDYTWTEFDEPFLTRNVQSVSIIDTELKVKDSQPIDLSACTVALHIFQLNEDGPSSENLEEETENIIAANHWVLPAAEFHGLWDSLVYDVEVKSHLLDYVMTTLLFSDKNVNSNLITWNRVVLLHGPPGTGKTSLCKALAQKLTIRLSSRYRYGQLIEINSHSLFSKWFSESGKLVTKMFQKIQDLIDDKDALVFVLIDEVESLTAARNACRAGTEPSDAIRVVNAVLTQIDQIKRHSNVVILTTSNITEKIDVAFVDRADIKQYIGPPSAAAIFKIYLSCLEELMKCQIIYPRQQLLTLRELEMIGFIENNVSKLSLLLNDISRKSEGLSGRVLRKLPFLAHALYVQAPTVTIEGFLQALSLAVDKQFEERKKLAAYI

B1: DDX46 (protein, UniProt Q7L014 1-1031)
chain: MGRESRHYRKRSASRGRSGSRSRSRSPSDKRSKRGDDRRSRSRDRDRRRERSRSRDKRRSRSRDRKRLRRSRSRERDRSRERRRSRSRDRRRSRSRSRGRRSRSSSPGNKSKKTENRSRSKEKTDGGESSKEKKKDKDDKEDEKEKDAGNFDQNKLEEEMRKRKERVEKWREEQRKKAMENIGELKKEIEEMKQGKKWSLEDDDDDEDDPAEAEKEGNEMEGEELDPLDAYMEEVKEEVKKFNMRSVKGGGGNEKKSGPTVTKVVTVVTTKKAVVDSDKKKGELMENDQDAMEYSSEEEEVDLQTALTGYQTKQRKLLEPVDHGKIEYEPFRKNFYVEVPELAKMSQEEVNVFRLEMEGITVKGKGCPKPIKSWVQCGISMKILNSLKKHGYEKPTPIQTQAIPAIMSGRDLIGIAKTGSGKTIAFLLPMFRHIMDQRSLEEGEGPIAVIMTPTRELALQITKECKKFSKTLGLRVVCVYGGTGISEQIAELKRGAEIIVCTPGRMIDMLAANSGRVTNLRRVTYVVLDEADRMFDMGFEPQVMRIVDNVRPDRQTVMFSATFPRAMEALARRILSKPIEVQVGGRSVVCSDVEQQVIVIEEEKKFLKLLELLGHYQESGSVIIFVDKQEHADGLLKDLMRASYPCMSLHGGIDQYDRDSIINDFKNGTCKLLVATSVAARGLDVKHLILVVNYSCPNHYEDYVHRAGRTGRAGNKGYAYTFITEDQARYAGDIIKALELSGTAVPPDLEKLWSDFKDQQKAEGKIIKKSSGFSGKGFKFDETEQALANERKKLQKAALGLQDSDDEDAAVDIDEQIESMFNSKKRVKDMAAPGTSSVPAPTAGNAEKLEIAKRLALRINAQKNLGIESQDVMQQATNAILRGGTILAPTVSAKTIAEQLAEKINAKLNYVPLEKQEEERQDGGQNESFKRYEEELEINDFPQTARWKVTSKEALQRISEYSEAAITIRGTYFPPGKEPKEGERKIYLAIESANELAVQKAKAEITRLIKEELIRLQNSYQPTNKGRYKVL

Biological target: T1, thyroid hormone receptor interactor 13 (TRIP13)
Test: affinity purification with mass spectrometry; IP from lysates of A2058-control and TRIP13-overexpressing A2058 cells; primary antibody and protein A/G beads, 4°C for 4 h; LC-MS/MS (EASY-nLC 1200, MaxQuant)

Molecule	binding
filamin A (FLNA) (from UniProt P21333 1-2647)	binds
B1	binds
